Results on one molecule are retold here after publication doi:10.1101/2025.03.30.646141.

These are yes or no findings as the source states them, for the method shown.

For this test, the target named is aminoglycoside 3'-O-phosphotransferase IIb, APH(3')-IIb, wild type (Pseudomonas aeruginosa) (UniProt Q9HWR2). The test can be described thus: SAXS.

B1: aminoglycoside 3'-O-phosphotransferase IIb, APH(3')-IIb, wild type (enzyme, UniProt Q9HWR2 1-268)
chain: MHDAATSMPPQAPSTWADYLAGYRWRGQGEGCSAATVHRLEAARRPTLFVKQEVLSAHAELPAEIARLRWLHGAGIDCPQVLNETQSDGRQWLLMSAVPGDTLSALAQRGELEPERLVRLVAAALRRLHDLDPAACPFDHRLERRLDTVRQRVEAGLVDEADFDDDHRGRSATELYRLLLDRRPAVEDLVVAHGDACLPNLLAEGRRFSGFIDCGRLGVADRHQDLALAARDIEAELGAAWAEAFLVEYGGDIDGERLAYFRLLDEFF
B1: the binding result is given as “no binding (tested: up to 10 mg/mL)”.
